# Assay results taken from article PMC3285579.
# No constants are given. Whether binding was seen depends on the method and setting. For some assays here: Binding calls can cover weak binding; strength is not graded here. For some assays here: In cells and extracts the contact can be indirect. For some assays here: Where a sequence is shown, tags or fusion partners need not be part of it.
# T1: VAB-1 kinase region (669 aa-985 aa) Y673E, two-hybrid bait (C. elegans) (UniProt O61460)
# T1 sequence: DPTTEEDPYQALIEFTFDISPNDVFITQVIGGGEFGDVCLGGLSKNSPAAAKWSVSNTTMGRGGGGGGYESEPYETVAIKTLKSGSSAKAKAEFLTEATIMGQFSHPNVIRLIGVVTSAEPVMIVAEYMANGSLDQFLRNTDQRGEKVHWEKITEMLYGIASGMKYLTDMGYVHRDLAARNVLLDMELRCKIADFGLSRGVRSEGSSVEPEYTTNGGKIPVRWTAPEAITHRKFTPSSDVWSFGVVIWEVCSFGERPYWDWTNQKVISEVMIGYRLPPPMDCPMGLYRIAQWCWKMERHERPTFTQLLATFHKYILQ
# T2: VAB-1 kinase region (669 aa-985 aa), wild type, two-hybrid bait (C. elegans) (UniProt O61460)
# T2 sequence: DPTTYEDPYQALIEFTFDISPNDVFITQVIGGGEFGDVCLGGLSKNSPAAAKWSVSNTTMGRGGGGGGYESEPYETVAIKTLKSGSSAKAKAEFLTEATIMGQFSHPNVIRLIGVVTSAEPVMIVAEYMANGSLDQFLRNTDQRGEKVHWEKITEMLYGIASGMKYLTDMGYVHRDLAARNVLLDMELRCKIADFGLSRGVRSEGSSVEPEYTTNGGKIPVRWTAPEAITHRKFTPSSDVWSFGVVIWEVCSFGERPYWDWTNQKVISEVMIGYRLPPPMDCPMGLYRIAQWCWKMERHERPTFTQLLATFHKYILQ
# How the values were obtained:
# [1] = molecular target: T1, VAB-1 kinase region (669 aa-985 aa) Y673E, two-hybrid bait (C. elegans); assay: two-hybrid; directed assays: pGBKT7 bait, pGADT7 prey; beta-galactosidase activity measured qualitatively by X-GAL overlay
# [2] = molecular target: T2, VAB-1 kinase region (669 aa-985 aa), wild type, two-hybrid bait (C. elegans); assay: as above
# [3] = molecular target: GST-NCK-1 F.L., full length NCK-1 (1 aa-397 aa) (C. elegans); assay: pull-down; MBP pull-down (Figure 6A): MBP-WSP-1 from soluble extract bound to amylose resin beads; soluble extracts of GST-NCK-1 F.L., His-VAB-1, or GST-NCK-1 F.L. co-expressed with His-VAB-1 as load; 2-3 hours at 4°C; washed four times (20 mM Tris-Cl pH 7.5, 200 mM NaCl, 1 mM EDTA, 1 mM DTT)
# [4] = molecular target: GST-NCK-1 F.L., full length NCK-1 (1 aa-397 aa) (C. elegans); assay: pull-down; same experiment as a5 (Figure 5A), pair His-VAB-1 with GST-NCK-1: His-VAB-1 from soluble extract or co-expressed with GST-NCK-1 F.L.; detected with anti-VAB-1
binding [1],binding [2],binding [3],binding [4],Molecule
no binding,binds,,,"NCK-1 SH2 domain, two-hybrid prey (C. elegans) (domain or fragment)"
,no binding,,,"MIG-10 SH2 domain, two-hybrid prey (C. elegans) (domain or fragment)"
,,binds,binds,"His-6::VAB-1 (581 aa-1117 aa) (domain or fragment, UniProt O61460 581-1117) QKKSKNRKQMSDLDVLDTYKQDSMTPDYHTTSRHHHHQGNLPATLHEQLRSTTKLNAPLIPSFGSPISQPPPYYGGVHPNSGKYKTYVDPTTYEDPYQALIEFTFDISPNDVFITQVIGGGEFGDVCLGGLSKNSPAAAKWSVSNTTMGRGGGGGGYESEPYETVAIKTLKSGSSAKAKAEFLTEATIMGQFSHPNVIRLIGVVTSAEPVMIVAEYMANGSLDQFLRNTDQRGEKVHWEKITEMLYGIASGMKYLTDMGYVHRDLAARNVLLDMELRCKIADFGLSRGVRSEGSSVEPEYTTNGGKIPVRWTAPEAITHRKFTPSSDVWSFGVVIWEVCSFGERPYWDWTNQKVISEVMIGYRLPPPMDCPMGLYRIAQWCWKMERHERPTFTQLLATFHKYILQPTLIEHDPGELPRRVQSQSALNTYGSVNVGVVPTPPSSAAPMPSLDDFLRQIGLNHVYGQLVSNNIHSVSDLANTSHLDLLAYGLMSAECSTVRDGLNGRISGSPPGSSGTIHATTRGTRTTRPPREEGFFV"
